Source: article PMC8400343, “Synthesis and Evaluation of the Antidepressant-like Properties of HBK-10, a Novel 2-Methoxyphenylpiperazine Derivative Targeting the 5-HT1A and D2 Receptors” (Pharmaceuticals, 2021)

Test system: HepG2 cells
Assay: MTT viability assay in HepG2 cells
Assay type: cell-based, human
Conditions: 24 h
Procedure: To investigate the lack of hepatotoxicity of HBK-10 at 25 µM concentration, we used HepG2 cells. Viability was measured using 3-(4,5-dimethyl-thiazol-2-yl)-2,5-diphenyltetrazolium (MTT) assay. We chose 25 µM since such concentration was used in metabolic stability studies.
To investigate the preliminary hepatic safety of HBK-10 at the concentration used in metabolic stability study, a human hepatocellular carcinoma cell line—HepG2 (HB-8065TM, ATCC, Manassas, VA, USA) was used in the study. HepG2 cells were cultured in standard conditions (37 °C, 5% CO2, 95% humidity) in appropriate culture medium (according to manufacturer procedure), supplemented with 10% fetal bovine serum (FBS, Gibco, Thermo Fisher Scientific, Waltham, MA, USA) and antibiotics (1% streptomycin/penicillin mixture; Sigma-Aldrich, Steinheim, Germany). Cells were seeded in 96-well plates at density of 1 × 10^4 per well. After 24 h cells were treated with two doses of HBK-10 (5 and 25 µM, solvent—PBS) and incubated for additional 24 h. Following the incubation cells viability was measured with MTT assay. For this purpose, MTT reagent (3-(4,5-dimethylthiazol-2-yl)-2,5-diphenyltetrazolium bromide) (Sigma Aldrich, Steinheim, Germany) was added to each well at the concentration 0.5 mg/mL. After 4 h incubation at 37 °C, the medium was aspirated, and formazan crystals produced in the cells were dissolved in DMSO. Then the absorbance of solution was determined at 570 nm (A570) on plate reader (Spectra iD3 Max, Molecular Devices; San Jose, CA, USA). Viability (% of control) was determined by dividing A570 of experimental wells by of A570 of control wells × 100%.

CCC(CN1CCN(c2ccccc2OC)CC1)NCCCOc1c(C)cccc1C.Cl.Cl (stereo not drawn) [HBK-10, N-(3-(2,6-dimethylphenoxy)propyl)-1-(4-(2-methoxyphenyl)piperazin-1-yl)butan-2-amine dihydrochloride]
Absorbance (OD570 nm) (HBK-10 1 μM): 0.531 OD570 nm
Absorbance (OD570 nm) (HBK-10 5 μM): 0.569 OD570 nm
Absorbance (OD570 nm) (HBK-10 25 μM): 0.463 OD570 nm
